Assay results as given in patent US9828389B2, “Tetrazolinone compounds and their use as pesticides” (SUMITOMO CHEMICAL COMPANY, LIMITED, priority 2012, dated 2017).
Some results were stated once for a whole list of compounds, not compound by compound.

Test system: wheat rust fungi (Puccinia recondita)
Experiment: Wheat rust control test, foliar spray on wheat
Assay type: in vivo
Details: wheat (cv; Shirogane), inoculated after 5 days, observed after 1+8 days
Procedure: The spores of wheat rust fungi (Puccinia recondita) were sprinkling-inoculated. After inoculation, the plants were placed under a dark and humid condition at 23° C. for 1 day and were then cultivated at 20° C. under lighting for 8 days and a lesion area was observed.

| SMILES | lesion area compared to the lesion area in untreated plants (foliar spray 200 ppm) [%] | lesion area compared to the lesion area in untreated plants (foliar spray 500 ppm) [%] |
| --- | --- | --- |
| Cc1cc(-n2nc(C)c(C)c2C)ccc1OCc1c(F)cccc1-n1nnn(C)c1=O [Present compound 1, 1-{3-fluoro-2-[2-methyl-4-(3,4,5-trimethyl-pyrazol-1-yl)-phenoxymethyl]-phenyl}-4-methyl-1,4-dihydrotetrazole-5-one] | ≤ 30 |  |
| CCOc1cccc(-n2nnn(C)c2=O)c1COc1ccc(-n2nc(C)c(C)c2C)cc1C [Present compound 8, 1-{3-ethoxy-2-[2-methyl-4-(3,4,5-trimethyl-pyrazol-1-yl)-phenoxymethyl]-phenyl}-4-methyl-1,4-dihydrotetrazole-5-one] | ≤ 30 |  |
| Cc1cc(C)n(-c2ccc(OCc3c(C)cccc3-n3nnn(C)c3=O)cc2)n1 [Present compound 19, 1-{3-methyl-2-[4-(3,5-dimethyl-pyrazol-1-yl)-phenoxymethyl]-phenyl}-4-methyl-1,4-dihydrotetrazole-5-one] | ≤ 30 |  |
| Cc1ccn(-c2ccc(OCc3c(C)cccc3-n3nnn(C)c3=O)c(C)c2)n1 [Present compound 22, 1-{3-methyl-2-[2-methyl-4-(3-methyl-pyrazol-1-yl)-phenoxymethyl]-phenyl}-4-methyl-1,4-dihydrotetrazole-5-one] |  | ≤ 30 |
| Cc1ccn(-c2ccc(OCc3c(C)cccc3-n3nnn(C)c3=O)c(Cl)c2)n1 [Present compound 29, 1-{3-methyl-2-[2-chloro-4-(3-methyl-pyrazol-1-yl)-phenoxymethyl]-phenyl}-4-methyl-1,4-dihydrotetrazole-5-one] | ≤ 30 |  |
| Cc1cc(-c2cnn(C)c2)ccc1OCc1c(C)cccc1-n1nnn(C)c1=O [Present compound 35, 1-{3-methyl-2-[2-methyl-4-(1-methyl-1H-pyrazole-4-yl)-phenoxymethyl]-phenyl}-4-methyl-1,4-dihydrotetrazole-5-one] | ≤ 30 |  |
| Cc1cc(-n2cc3c(n2)CCCC3)ccc1OCc1c(C)cccc1-n1nnn(C)c1=O [Present compound 38, 1-{3-methyl-2-[2-methyl-4-(4,5,6,7-tetrahydro-indazole-2-yl)-phenoxymethyl]-phenyl}-4-methyl-1,4-dihydrotetrazole-5-one] | ≤ 30 |  |
| Cc1cc(-n2ncc3c2CCCC3)ccc1OCc1c(C)cccc1-n1nnn(C)c1=O [Present compound 39, 1-{3-methyl-2-[2-methyl-4-(4,5,6,7-tetrahydro-indazole-1-yl)-phenoxymethyl]-phenyl}-4-methyl-1,4-dihydrotetrazole-5-one] |  | ≤ 30 |
| Cc1cccc(-n2nnn(C)c2=O)c1COc1ccc(-n2nc(C(F)(F)F)cc2C)cc1Cl [Present compound 43, 1-{3-methyl-2-[2-chloro-4-(3-trifluoromethyl-5-methyl-pyrazol-1-yl)-phenoxymethyl]-phenyl}-4-methyl-1,4-dihydrotetrazole-5-one] | ≤ 30 |  |
| CCc1cccc(-n2nnn(C)c2=O)c1COc1ccc(-n2nc(C)cc2C)cc1Cl [Present compound 51, 1-{3-ethyl-2-[2-chloro-4-(3,5-dimethyl-pyrazol-1-yl)-phenoxymethyl]-phenyl}-4-methyl-1,4-dihydrotetrazole-5-one] |  | ≤ 30 |
| COc1cccc(-n2nnn(C)c2=O)c1COc1ccc(-n2nc(C)c(C)c2C)cc1Cl [Present compound 61, 1-{3-methoxy-2-[2-chloro-4-(3,4,5-trimethyl-pyrazol-1-yl)-phenoxymethyl]-phenyl}-4-methyl-1,4-dihydrotetrazole-5-one] | ≤ 30 |  |
| CCCn1cc(-c2ccc(OCc3c(OC)cccc3-n3nnn(C)c3=O)c(C)c2)cn1 [Present compound 70, 1-{3-methoxy-2-[2-methyl-4-(1-propyl-1H-pyrazol-1-yl)-phenoxymethyl]-phenyl}-4-methyl-1,4-dihydrotetrazole-5-one] | ≤ 30 |  |
| CCn1cc(-c2ccc(OCc3c(OC)cccc3-n3nnn(C)c3=O)c(C)c2)cn1 [Present compound 71, 1-{3-methoxy-2-[2-methyl-4-(1-ethyl-1H-pyrazole-4-yl)-phenoxymethyl]-phenyl}-4-methyl-1,4-dihydrotetrazole-5-one] | ≤ 30 |  |
| COc1cccc(-n2nnn(C)c2=O)c1COc1ccc(-c2cnn(C(C)C)c2)cc1C [Present compound 73, 1-{3-methoxy-2-[2-methyl-4-(1-isopropyl-1H-pyrazole-4-yl)-phenoxymethyl]-phenyl}-4-methyl-1,4-dihydrotetrazole-5-one] | ≤ 30 |  |
| COc1cccc(-n2nnn(C)c2=O)c1COc1ccc(-c2cn(C)nc2C)cc1C [Present compound 80, 1-{3-methoxy-2-[2-methyl-4-(1,3-dimethyl-1H-pyrazole-4-yl)-phenoxymethyl]-phenyl}-4-methyl-1,4-dihydrotetrazole-5-one] | ≤ 30 |  |
| COc1cccc(-n2nnn(C)c2=O)c1COc1ccc(-n2cc3c(n2)CCCC3)cc1C [Present compound 81, 1-{3-methoxy-2-[2-methyl-4-(4,5,6,7-tetrahydro-indazole-2-yl)-phenoxymethyl]-phenyl}-4-methyl-1,4-dihydrotetrazole-5-one] | ≤ 30 |  |
| COc1cccc(-n2nnn(C)c2=O)c1COc1ccc(-n2ncc3c2CCCC3)cc1C [Present compound 82, 1-{3-methoxy-2-[2-methyl-4-(4,5,6,7-tetrahydro-indazole-1-yl)-phenoxymethyl]-phenyl}-4-methyl-1,4-dihydrotetrazole-5-one] | ≤ 30 |  |
| COc1cccc(-n2nnn(C)c2=O)c1COc1ccc(-n2ccc(C)n2)c(C)c1C [Present compound 83, 1-{3-methoxy-2-[2,3-dimethyl-4-(3-methyl-pyrazol-1-yl)-phenoxymethyl]-phenyl}-4-methyl-1,4-dihydrotetrazole-5-one] | ≤ 30 |  |
| COc1cccc(-n2nnn(C)c2=O)c1COc1ccc(-c2ccn(S(=O)(=O)C3CC3)n2)cc1C [Present compound 114, 1-{3-methoxy-2-[2-methyl-4-(1-cyclopropanesulfonyl-1H-pyrazol-3-yl)-phenoxymethyl}-phenyl}-4-methyl-1,4-dihydrotetrazole-5-one] | ≤ 30 |  |
| CCOc1cccc(-n2nnn(C)c2=O)c1COc1ccc(-n2nc(C)cc2C)cc1Cl [Present compound 127, 1-{3-ethoxy-2-[2-chloro-4-(3,5-dimethyl-pyrazol-1-yl)-phenoxymethyl]-phenyl}-4-methyl-1,4-dihydrotetrazole-5-one] |  | ≤ 30 |
| COc1cccc(-n2nnn(C)c2=O)c1COc1ccc(-c2ccn(CC3CC3)n2)cc1C [Present compound 132, 1-{3-methoxy-2-[2-methyl-4-(1-cyclopropylmethyl-1H-pyrazol-3-yl)-phenoxymethyl]-phenyl}-4-methyl-1,4-dihydrotetrazole-5-one] | ≤ 30 |  |
| COc1cccc(-n2nnn(C)c2=O)c1COc1ccc(-c2n[nH]cc2C)cc1C [Present compound 140, 1-{3-methoxy-2-[2-methyl-4-(4-methyl-1H-pyrazol-3-yl)-phenoxymethyl]-phenyl}-4-methyl-1,4-dihydrotetrazole-5-one] |  | ≤ 30 |
| COc1cccc(-n2nnn(C)c2=O)c1COc1ccc(-c2ccn(CC#N)n2)cc1C [Present compound 147, 1-{3-methoxy-2-[2-methyl-4-(1-cyanomethyl-1H-pyrazol-3-yl)-phenoxymethyl]-phenyl}-4-methyl-1,4-dihydrotetrazole-5-one] | ≤ 30 |  |
| Cc1cc(-c2nn(C)cc2C)ccc1OCc1c(Cl)cccc1-n1nnn(C)c1=O [Present compound 158, 1-{3-chloro-2-[2-methyl-4-(1,4-dimethyl-1H-pyrazol-3-yl)-phenoxymethyl]-phenyl}-4-methyl-1,4-dihydrotetrazole-5-one] |  | ≤ 30 |
| Cc1cc(-c2nn(C)c(C)c2C)ccc1OCc1c(C)cccc1-n1nnn(C)c1=O [Present compound 163, 1-{3-methyl-2-[2-methyl-4-(1,4,5-trimethyl-1H-pyrazol-3-yl)-phenoxymethyl]-phenyl}-4-methyl-1,4-dihydrotetrazole-5-one] | ≤ 30 | ≤ 30 |
| COc1cccc(-n2nnn(C)c2=O)c1COc1ccc(-c2nn(C)c(C)c2C)cc1C [Present compound 164, 1-{3-methoxy-2-[2-methyl-4-(1,4,5-trimethyl-1H-pyrazol-3-yl)-phenoxymethyl]-phenyl}-4-methyl-1,4-dihydrotetrazole-5-one] | ≤ 30 | ≤ 30 |
| CCc1cccc(-n2nnn(C)c2=O)c1COc1ccc(-c2nn(C)c(C)c2C)cc1C [Present compound 165, 1-{3-ethyl-2-[2-methyl-4-(1,4,5-trimethyl-1H-pyrazol-3-yl)-phenoxymethyl]-phenyl}-4-methyl-1,4-dihydrotetrazole-5-one] | ≤ 30 | ≤ 30 |
| Cc1cc(-c2nn(C)c(C)c2C)ccc1OCc1c(Cl)cccc1-n1nnn(C)c1=O [Present compound 166, 1-{3-chloro-2-[2-methyl-4-(1,4,5-trimethyl-1H-pyrazol-3-yl)-phenoxymethyl]-phenyl}-4-methyl-1,4-dihydrotetrazole-5-one] | ≤ 30 | ≤ 30 |
